# B1: Transforming growth factor-beta receptor-associated protein 1 (protein, UniProt Q8WUH2 1-860, looked up)
# Transforming growth …: MMSIKAFTLVSAVERELLMGDKERVNIECVECCGRDLYVGTNDCFVYHFLLEERPVPAGPATFTATKQLQRHLGFKKPVNELRAASALNRLLVLCDNSISLVNMLNLEPVPSGARIKGAATFALNENPVSGDPFCVEVCIISVKRRTIQMFLVYEDRVQIVKEVSTAEQPLAVAVDGHFLCLALTTQYIIHNYSTGVSQDLFPYCSEERPPIVKRIGRQEFLLAGPGGLGMFATVAGISQRAPVHWSENVIGAAVSFPYVIALDDEFITVHSMLDQQQKQTLPFKEGHILQDFEGRVIVATSKGVYILVPLPLEKQIQDLLASRRVEEALVLAKGARRNIPKEKFQVMYRRILQQAGFIQFAQLQFLEAKELFRSGQLDVRELISLYPFLLPTSSSFTRSHPPLHEYADLNQLTQGDQEKMAKCKRFLMSYLNEVRSTEVANGYKEDIDTALLKLYAEADHDSLLDLLVTENFCLLTDSAAWLEKHKKYFALGLLYHYNNQDAAAVQLWVNIVNGDVQDSTRSDLYEYIVDFLTYCLDEELVWAYADWVLQKSEEVGVQVFTKRPLDEQQKNSFNPDDIINCLKKYPKALVKYLEHLVIDKRLQKEEYHTHLAVLYLEEVLLQRASASGKGAEATETQAKLRRLLQKSDLYRVHFLLERLQGAGLPMESAILHGKLGEHEKALHILVHELQDFAAAEDYCLWCSEGRDPPHRQQLFHTLLAIYLHAGPTAHELAVAAVDLLNRHATEFDAAQVLQMLPDTWSVQLLCPFLMGAMRDSIHARRTMQVALGLARSENLIYTYDKMKLKGSSIQLSDKKLCQICQNPFCEPVFVRYPNGGLVHTHCAASRHTNPSSSSPGTRT
# B2: Plasminogen activator inhibitor 1 RNA-binding protein; SERBP1 (protein, UniProt Q8NC51 2-408, looked up)
# SERPINE1 mRNA-binding protein …: PGHLQEGFGCVVTNRFDQLFDDESDPFEVLKAAENKKKEAGGGGVGGPGAKSAAQAAAQTNSNAAGKQLRKESQKDRKNPLPPSVGVVDKKEETQPPVALKKEGIRRVGRRPDQQLQGEGKIIDRRPERRPPRERRFEKPLEEKGEGGEFSVDRPIIDRPIRGRGGLGRGRGGRGRGMGRGDGFDSRGKREFDRHSGSDRSSFSHYSGLKHEDKRGGSGSHNWGTVKDELTESPKYIQKQISYNYSDLDQSNVTEETPEGEEHHPVADTENKENEVEEVKEEGPKEMTLDEWKAIQNKDRAKVEFNIRKPNEGADGQWKKGFVLHKSKSEEAHAEDSVMDHHFRKPANDITSQLEINFGDLGRPGRGGRGGRGGRGRGGRPNRGSRTDKSSASAPDVDDPEAFPALA
# B3: Metastasis-associated protein MTA2 (protein, UniProt O94776 1-668, looked up)
# Metastasis-associated protein …: MAANMYRVGDYVYFENSSSNPYLVRRIEELNKTANGNVEAKVVCLFRRRDISSSLNSLADSNAREFEEESKQPGVSEQQRHQLKHRELFLSRQFESLPATHIRGKCSVTLLNETDILSQYLEKEDCFFYSLVFDPVQKTLLADQGEIRVGCKYQAEIPDRLVEGESDNRNQQKMEMKVWDPDNPLTDRQIDQFLVVARAVGTFARALDCSSSIRQPSLHMSAAAASRDITLFHAMDTLQRNGYDLAKAMSTLVPQGGPVLCRDEMEEWSASEAMLFEEALEKYGKDFNDIRQDFLPWKSLASIVQFYYMWKTTDRYIQQKRLKAAEADSKLKQVYIPTYTKPNPNQIISVGSKPGMNGAGFQKGLTCESCHTTQSAQWYAWGPPNMQCRLCASCWIYWKKYGGLKTPTQLEGATRGTTEPHSRGHLSRPEAQSLSPYTTSANRAKLLAKNRQTFLLQTTKLTRLARRMCRDLLQPRRAARRPYAPINANAIKAECSIRLPKAAKTPLKIHPLVRLPLATIVKDLVAQAPLKPKTPRGTKTPINRNQLSQNRGLGGIMVKRAYETMAGAGVPFSANGRPLASGIRSSSQPAAKRQKLNPADAPNPVVFVATKDTRALRKALTHLEMRRAARRPNLPLKVKPTLIAVRPPVPLPAPSHPASTNEPIVLED
# B4: Serine/threonine-protein kinase D2; PRKD2 (protein, UniProt Q9BZL6 1-878, looked up)
# Serine/threonine-protein …: MATAPSYPAGLPGSPGPGSPPPPGGLELQSPPPLLPQIPAPGSGVSFHIQIGLTREFVLLPAASELAHVKQLACSIVDQKFPECGFYGLYDKILLFKHDPTSANLLQLVRSSGDIQEGDLVEVVLSASATFEDFQIRPHALTVHSYRAPAFCDHCGEMLFGLVRQGLKCDGCGLNYHKRCAFSIPNNCSGARKRRLSSTSLASGHSVRLGTSESLPCTAEELSRSTTELLPRRPPSSSSSSSASSYTGRPIELDKMLLSKVKVPHTFLIHSYTRPTVCQACKKLLKGLFRQGLQCKDCKFNCHKRCATRVPNDCLGEALINGDVPMEEATDFSEADKSALMDESEDSGVIPGSHSENALHASEEEEGEGGKAQSSLGYIPLMRVVQSVRHTTRKSSTTLREGWVVHYSNKDTLRKRHYWRLDCKCITLFQNNTTNRYYKEIPLSEILTVESAQNFSLVPPGTNPHCFEIVTANATYFVGEMPGGTPGGPSGQGAEAARGWETAIRQALMPVILQDAPSAPGHAPHRQASLSISVSNSQIQENVDIATVYQIFPDEVLGSGQFGVVYGGKHRKTGRDVAVKVIDKLRFPTKQESQLRNEVAILQSLRHPGIVNLECMFETPEKVFVVMEKLHGDMLEMILSSEKGRLPERLTKFLITQILVALRHLHFKNIVHCDLKPENVLLASADPFPQVKLCDFGFARIIGEKSFRRSVVGTPAYLAPEVLLNQGYNRSLDMWSVGVIMYVSLSGTFPFNEDEDINDQIQNAAFMYPASPWSHISAGAIDLINNLLQVKMRKRYSVDKSLSHPWLQEYQTWLDLRELEGKMGERYITHESDDARWEQFAAEHPLPGSGLPTDRDLGGACPPQDHDMQGLAERISVL
# B5: Signal transducer and activator of transcription 5A (protein, UniProt P42229 1-794, looked up)
# Signal transducer and …: MAGWIQAQQLQGDALRQMQVLYGQHFPIEVRHYLAQWIESQPWDAIDLDNPQDRAQATQLLEGLVQELQKKAEHQVGEDGFLLKIKLGHYATQLQKTYDRCPLELVRCIRHILYNEQRLVREANNCSSPAGILVDAMSQKHLQINQTFEELRLVTQDTENELKKLQQTQEYFIIQYQESLRIQAQFAQLAQLSPQERLSRETALQQKQVSLEAWLQREAQTLQQYRVELAEKHQKTLQLLRKQQTIILDDELIQWKRRQQLAGNGGPPEGSLDVLQSWCEKLAEIIWQNRQQIRRAEHLCQQLPIPGPVEEMLAEVNATITDIISALVTSTFIIEKQPPQVLKTQTKFAATVRLLVGGKLNVHMNPPQVKATIISEQQAKSLLKNENTRNECSGEILNNCCVMEYHQATGTLSAHFRNMSLKRIKRADRRGAESVTEEKFTVLFESQFSVGSNELVFQVKTLSLPVVVIVHGSQDHNATATVLWDNAFAEPGRVPFAVPDKVLWPQLCEALNMKFKAEVQSNRGLTKENLVFLAQKLFNNSSSHLEDYSGLSVSWSQFNRENLPGWNYTFWQWFDGVMEVLKKHHKPHWNDGAILGFVNKQQAHDLLINKPDGTFLLRFSDSEIGGITIAWKFDSPERNLWNLKPFTTRDFSIRSLADRLGDLSYLIYVFPDRPKDEVFSKYYTPVLAKAVDGYVKPQIKQVVPEFVNASADAGGSSATYMDQAPSPAVCPQAPYNMYPQNPDHVLDQDGEFDLDETMDVARHVEELLRRPMDSLDSRLSPPAGLFTSARGSLS
# Test system: Hsp90 complexes in K562 cell extract
# Experiment: Nano-LC-MS/MS of PU-beads pull-downs
# Type: binding
# Conditions: for Matched Peptides by Fraction JA04: Run1, gel size cut 80-110; for MAXIMUM matched peptides: maximum over fractions JA01-JA14; for Total fmol: protein isolated in PU-beads pull-downs, Waters Xevo QTof MS; for Matched Peptides by Fraction JA05: Run1, gel size cut 60-80; for Matched Peptides by Fraction JA12: Run2, gel size cut 60-80
# Summary of the method: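 Lysates pre-cleared overnight at 4 °C with control beads, then pulled down with PU-beads or control beads; eluted proteins (2% SDS boil) gel-separated and analysed by nano LC-MS/MS on a QTof. Mascot identification (p<0.05), spectral counts and sequence coverage evaluated in Scaffold.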
Molecule,Matched Peptides by Fraction JA04 (PU-beads pull-down),MAXIMUM matched peptides (PU-beads pull-down),Total fmol [fmol],Matched Peptides by Fraction JA05 (PU-beads pull-down),Matched Peptides by Fraction JA12 (PU-beads pull-down),"Matched Peptides by Fraction JA03 (PU-beads pull-down, Run1, gel size cut 110-150)","Matched Peptides by Fraction JA10 (PU-beads pull-down, Run2, gel size cut 110-150)","Matched Peptides by Fraction JA11 (PU-beads pull-down, Run2, gel size cut 80-110)"
B1,15,15,1.7989,,,,,
B2,,20,19.2385,17,20,,,
B3,,26,17.8585,26,24,,,
B4,,9,3.5358,,,6,9,
B5,78,78,33.6765,,,,,73

# Reference: US20220074941A1, “HSP90 COMBINATION THERAPY” (Sloan-Kettering Institute for Cancer Research, priority 2011, published 2022)
